Experimental data: PubChem BioAssay AID1259254 (NCATS, 2017)
Screen: 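Genome-wide screen for genes that prevent DNA re-replication in cancer cells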 (primary screen). System: human HCT116 colorectal cancer cells. Knock-down reagent: single siRNA against human genes. Time to read-out: 3 days. Read-out: 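Imaged Hoechst DNA stain sorts each cell into a cycle phase by DNA amount; per plate, G2 fraction set to 0% for non-targeting and 100% for GMNN siRNA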. Scale: G2 robust z-score and G2 cells, % of GMNN control: higher = more G2 cells, more excess DNA replication; raw share of cells in G2: higher = larger share of cells with G2 DNA content. Call rule: 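Active siRNAs have a G2 robust z of 5 or more median absolute deviations over the median, which in these data means about 38% or higher of GMNN control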.
In all, the deposit lists about 59,000 reagents; this is a random part of them. Over the whole deposit, about 1,550 (2.6%) were called active. 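G2 share is only a proxy for re-replication; each gene was hit by three separate siRNAs, and active genes were retested.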 Raw values vary from plate to plate and are shown uncorrected. Reagents against one gene are numbered here. Reagent sequences are not shown. Not given: the amount of reagent.

Target gene	reagent	G2 robust z-score	G2 cells, % of GMNN control	raw share of cells in G2 (%)	activity call
UBE2L3 (GeneID 7332)	1	0.173	4.18	7.36	inactive
UBE2L3 (GeneID 7332)	2	1.46	13.2	8.83	inactive
UBE2L3 (GeneID 7332)	3	-0.299	0.862	4.58	inactive
TLX2 (GeneID 3196)	1	2.39	19.8	12.2	inactive
TLX2 (GeneID 3196)	2	-0.933	-3.6	4.31	inactive
TLX2 (GeneID 3196)	3	3.12	24.9	13.3	inactive
TAF3 (GeneID 83860)	1	4.16	32.3	14.8	inactive
TAF3 (GeneID 83860)	2	-0.468	-0.328	3.36	inactive
TAF3 (GeneID 83860)	3	0.543	6.79	4.46	inactive
DLST (GeneID 1743)	1	-0.294	0.902	5.28	inactive
DLST (GeneID 1743)	2	0.357	5.48	6.99	inactive
DLST (GeneID 1743)	3	-0.522	-0.703	3.85	inactive
FAM167A (GeneID 83648)	1	0.0865	3.58	5.3	inactive
FAM167A (GeneID 83648)	2	0.0837	3.56	4.51	inactive
FAM167A (GeneID 83648)	3	1.68	14.8	6.88	inactive
OR7D4 (GeneID 125958)	1	-0.462	-0.283	1.74	inactive
OR7D4 (GeneID 125958)	2	0.195	4.34	5.83	inactive
OR7D4 (GeneID 125958)	3	-0.673	-1.77	2.8	inactive
ALDH5A1 (GeneID 7915)	1	-0.12	2.12	5.05	inactive
ALDH5A1 (GeneID 7915)	2	-0.0928	2.31	5.24	inactive
ALDH5A1 (GeneID 7915)	3	-0.287	0.951	6	inactive
SRSF4 (GeneID 6429)	1	0.765	8.35	6.72	inactive
SRSF4 (GeneID 6429)	2	-1.47	-7.38	3.2	inactive
SRSF4 (GeneID 6429)	3	-1.1	-4.74	2.92	inactive
SH3GL1 (GeneID 6455)	1	-0.809	-2.72	3.82	inactive
SH3GL1 (GeneID 6455)	2	2.58	21.1	12.6	inactive
SH3GL1 (GeneID 6455)	3	0.238	4.64	5.03	inactive
CNBD1 (GeneID 168975)	1	-0.89	-3.29	2.42	inactive
CNBD1 (GeneID 168975)	2	-0.922	-3.52	1.78	inactive
CNBD1 (GeneID 168975)	3	-0.146	1.94	3.38	inactive

Targets above whose gene name begins with D or d:
Target gene	reagent	G2 robust z-score	G2 cells, % of GMNN control	raw share of cells in G2 (%)	activity call
DLST (GeneID 1743)	1	-0.294	0.902	5.28	inactive
DLST (GeneID 1743)	2	0.357	5.48	6.99	inactive
DLST (GeneID 1743)	3	-0.522	-0.703	3.85	inactive

Continued:
Target gene	reagent	G2 robust z-score	G2 cells, % of GMNN control	raw share of cells in G2 (%)	activity call
SLC71A2 (GeneID 84641)	1	-0.545	-0.867	4.47	inactive
SLC71A2 (GeneID 84641)	2	0.425	5.95	7.91	inactive
SLC71A2 (GeneID 84641)	3	3.47	27.4	14.1	inactive
DEFB126 (GeneID 81623)	1	1.25	11.8	5.98	inactive
DEFB126 (GeneID 81623)	2	-0.954	-3.75	2.86	inactive
DEFB126 (GeneID 81623)	3	-0.569	-1.03	3.15	inactive
RNF215 (GeneID 200312)	1	-0.354	0.477	6.18	inactive
RNF215 (GeneID 200312)	2	8.38	62	27.4	active
RNF215 (GeneID 200312)	3	-0.666	-1.72	3.98	inactive
DRC10 (GeneID 115811)	1	0.381	5.64	6.35	inactive
DRC10 (GeneID 115811)	2	-0.84	-2.94	2.45	inactive
DRC10 (GeneID 115811)	3	-0.955	-3.75	0.722	inactive
ZSWIM9 (GeneID 374920)	1	-0.383	0.274	4.08	inactive
ZSWIM9 (GeneID 374920)	2	-0.69	-1.89	2.43	inactive
ZSWIM9 (GeneID 374920)	3	-0.669	-1.74	3.49	inactive
SGPL1 (GeneID 8879)	1	0.21	4.45	6.56	inactive
SGPL1 (GeneID 8879)	2	1.76	15.3	10.6	inactive
SGPL1 (GeneID 8879)	3	1.56	14	9.71	inactive
ZNF768 (GeneID 79724)	1	-0.723	-2.12	2.04	inactive
ZNF768 (GeneID 79724)	2	-0.152	1.9	6.77	inactive
ZNF768 (GeneID 79724)	3	0.58	7.05	5.85	inactive
RPS14 (GeneID 6208)	1	9.44	69.4	34.5	active
RPS14 (GeneID 6208)	2	3.13	25	14.1	inactive
RPS14 (GeneID 6208)	3	5.37	40.8	18.1	active
INSIG1 (GeneID 3638)	1	3.16	25.2	15.7	inactive
INSIG1 (GeneID 3638)	2	-0.43	-0.0598	4.2	inactive
INSIG1 (GeneID 3638)	3	0.481	6.35	5.65	inactive
RPS2P20 (GeneID 645018)	1	3.48	27.5	13.1	inactive
RPS2P20 (GeneID 645018)	2	14.2	103	33.2	active
RPS2P20 (GeneID 645018)	3	-0.636	-1.51	3.06	inactive
CCL15 (GeneID 6359)	1	-0.369	0.372	5.13	inactive
CCL15 (GeneID 6359)	2	-1.08	-4.64	2.39	inactive
CCL15 (GeneID 6359)	3	-0.711	-2.03	2.62	inactive
GSS (GeneID 2937)	1	0.0159	3.08	6.36	inactive
GSS (GeneID 2937)	2	3.08	24.6	14.6	inactive
GSS (GeneID 2937)	3	0.597	7.17	6.21	inactive
SLC4A1 (GeneID 6521)	1	1.3	12.1	7.97	inactive
SLC4A1 (GeneID 6521)	2	1.42	13	8.99	inactive
SLC4A1 (GeneID 6521)	3	-0.499	-0.542	5.5	inactive
